This note sets out measurements from PubChem BioAssay AID248 (DTP/NCI, 2004).

The list is a part of this screen's results and no random one: it gathers tests that were run many times, whatever their T/C, doses with no T/C, and many T/C values between a quarter and a half above the control. Further doses and runs are listed elsewhere. T/C: endpoint of the treated group in % of that of the vehicle group. Some doses have a count of surviving animals in place of a T/C: the source holds a T/C of zero for them, seemingly a mark for toxic or unscored doses. Some survivor counts are full or nearly so, which does not show that the dose was tolerated: survival well below the control is almost never listed, so the zero probably covers shortened survival too. Counts of survivors are from the toxicity check (mostly the fifth day) where no day follows; animals may have died later. Schedule codes are those of the source, read here as Q, the interval in days (D) or hours (H), X, the number of doses. Some entries were tested several times; the values are given in rising order. Some schedule codes hold Z or #, which are not explained here. Where survival is the endpoint, this PubChem deposit counts one and a half times the control or more as active, and values a quarter to a half above the control carry no call in these data; other NCI protocols may use other cut-offs. Some T/C values carry the count of animals alive at the toxicity check (mostly the fifth day); where none is given, no animal had died by that day.

The experiment concerns L1210 leukemia ip in BDF1 mice, survival T/C. The experiment can be described thus: NCI In Vivo Anticancer Drug Screen. Data for tumor model L1210 Leukemia (intraperitoneal) in B6D2F1 (BDF1) mice. The settings on record: T/C endpoint: mean survival time, higher T/C = longer survival.
Setting [1] is: dose: 30.0 mg/kg/injection, schedule: Q01DX001 (ip), vehicle: carboxymethylcellulose (CMC).
[2] abbreviates: dose: 400.0 mg/kg/injection, schedule: Q01DX001 (ip), vehicle: carboxymethylcellulose (CMC).

Regarding `O=C1CC(c2ccc(OCN(CCCl)CCCl)cc2)CC(=O)C1CN(CCCl)CCCl` (stereo unspecified), the T/C is 126 % of control (dose: 0.5 mg/kg/injection, schedule: Q04DX003 (ip), vehicle: saline); 134 % of control (dose: 0.75 mg/kg/injection, schedule: Q01DX009 (ip), vehicle: saline); 138 % of control (dose: 1.0 mg/kg/injection, schedule: Q01DX001 (ip), vehicle: saline); 129 % of control (dose: 1.0 mg/kg/injection, schedule: Q04DX003 (ip), vehicle: saline); 129 % of control (dose: 1.5 mg/kg/injection, schedule: Q01DX009 (ip), vehicle: saline); 135 % of control (dose: 3.0 mg/kg/injection, schedule: Q04DX003 (ip), vehicle: saline). For the same compound, the T/C (dose: 4.4 mg/kg/injection, schedule: Q01DX009 (ip), vehicle: carboxymethylcellulose (CMC)) was 138 % of control; the T/C (dose: 13.0 mg/kg/injection, schedule: Q01DX001 (ip), vehicle: carboxymethylcellulose (CMC)) was 136 % of control; the T/C (dose: 15.0 mg/kg/injection, schedule: Q01DX001 (ip), vehicle: carboxymethylcellulose (CMC)) is 145 % of control; the T/C under setting [1] was 142 % of control; the T/C (dose: 60.0 mg/kg/injection, schedule: Q01DX001 (ip), vehicle: carboxymethylcellulose (CMC)) was 142 % of control; the T/C (dose: 2.0 micrograms/kg/injection, schedule: Q01DX001 (ip), vehicle: saline with Tween-80) is 126 % of control. The T/C (dose: 4.0 micrograms/kg/injection, schedule: Q01DX001 (ip), vehicle: saline with Tween-80) is 145 % of control. In addition, the survivor count is recorded as 6 of 6 (dose: 0.59 mg/kg/injection, schedule: Q01DX009 (ip), vehicle: carboxymethylcellulose (CMC)); 6 of 6 (dose: 0.75 mg/kg/injection, schedule: Q04DX003 (ip), vehicle: saline); 6 of 6 (dose: 1.5 mg/kg/injection, schedule: Q04DX003 (ip), vehicle: saline); 6 of 6 (dose: 2.0 mg/kg/injection, schedule: Q01DX001 (ip), vehicle: saline); 5 of 6 (dose: 2.2 mg/kg/injection, schedule: Q01DX009 (ip), vehicle: carboxymethylcellulose (CMC)); 4 of 6 (dose: 3.3 mg/kg/injection, schedule: Q01DX009 (ip), vehicle: carboxymethylcellulose (CMC)). The survivor count (dose: 4.4 mg/kg/injection, schedule: Q01DX009 (ip), vehicle: saline) is listed as 6 of 6; the survivor count (dose: 5.0 mg/kg/injection, schedule: Q01DX009 (ip), vehicle: carboxymethylcellulose (CMC)) is listed as 5 of 6; the survivor count (dose: 6.6 mg/kg/injection, schedule: Q01DX009 (ip), vehicle: saline) was 6 of 6; the survivor count (dose: 8.0 mg/kg/injection, schedule: Q01DX001 (ip), vehicle: saline) is 4 of 6 and 6 of 6; the survivor count (dose: 10.0 mg/kg/injection, schedule: Q01DX009 (ip), vehicle: carboxymethylcellulose (CMC)) is 4 of 6; the survivor count (dose: 10.0 mg/kg/injection, schedule: Q01DX009 (ip), vehicle: saline) is 5 of 6. Further, the survivor count (dose: 15.0 mg/kg/injection, schedule: Q01DX001 (ip), vehicle: saline) was 4 of 6; the survivor count (dose: 15.0 mg/kg/injection, schedule: Q01DX009 (ip), vehicle: carboxymethylcellulose (CMC)) is recorded as 5 of 6; the survivor count (dose: 20.0 mg/kg/injection, schedule: Q01DX001 (ip), vehicle: carboxymethylcellulose (CMC)) is reported as 3 of 6; the survivor count (dose: 20.0 mg/kg/injection, schedule: Q01DX009 (ip), vehicle: carboxymethylcellulose (CMC)) is recorded as 0 of 6; the survivor count under setting [1] was 2 of 6; the survivor count (dose: 30.0 mg/kg/injection, schedule: Q01DX001 (ip), vehicle: saline) was 5 of 6. Also, the survivor count is, setting by setting: (dose: 30.0 mg/kg/injection, schedule: Q04DX003 (ip), vehicle: saline) 6 of 6; (dose: 60.0 mg/kg/injection, schedule: Q01DX001 (ip), vehicle: saline) 0 of 6; (dose: 60.0 mg/kg/injection, schedule: Q04DX003 (ip), vehicle: saline) 5 of 6; (dose: 75.0 mg/kg/injection, schedule: Q01DX001 (ip), vehicle: carboxymethylcellulose (CMC)) 4 of 6; (dose: 150.0 mg/kg/injection, schedule: Q01DX001 (ip), vehicle: carboxymethylcellulose (CMC)) 5 of 6; (dose: 300.0 mg/kg/injection, schedule: Q01DX001 (ip), vehicle: carboxymethylcellulose (CMC)) 0 of 6. The survivor count (dose: 8.0 micrograms/kg/injection, schedule: Q01DX001 (ip), vehicle: saline with Tween-80) is 5 of 6.
As to `CCCN=C(N)c1ccc(NC(=O)c2ccc(C(=O)Nc3ccc(C(N)=NCCC)cc3)cc2)cc1`, the T/C by setting is: (dose: 0.62 mg/kg/injection, schedule: Q01DX Z (ip), vehicle: carboxymethylcellulose (CMC)) 133 % of control; (dose: 3.0 mg/kg/injection, schedule: Q01DX001 (ip), vehicle: other) 126 % of control; (dose: 4.4 mg/kg/injection, schedule: Q01DX001 (ip), vehicle: carboxymethylcellulose (CMC)) 132 % of control; (dose: 4.4 mg/kg/injection, schedule: Q01DX001 (ip), vehicle: other) 130 % of control; (dose: 5.0 mg/kg/injection, schedule: Q01DX Z (ip), vehicle: carboxymethylcellulose (CMC)) 133 % of control [5 of 6 alive]; (dose: 6.6 mg/kg/injection, schedule: Q01DX001 (ip), vehicle: carboxymethylcellulose (CMC)) 139 % of control. Further, the T/C (dose: 6.6 mg/kg/injection, schedule: Q01DX001 (ip), vehicle: other) is 131 % of control. Besides, the survivor count by setting is: (dose: 21.0 mg/kg/injection, schedule: Q01DX Z (ip), vehicle: carboxymethylcellulose (CMC)) 6 of 6; (dose: 42.0 mg/kg/injection, schedule: Q01DX Z (ip), vehicle: carboxymethylcellulose (CMC)) 0 of 6; (dose: 84.0 mg/kg/injection, schedule: Q01DX Z (ip), vehicle: carboxymethylcellulose (CMC)) 0 of 6; (dose: 168.0 mg/kg/injection, schedule: Q01DX Z (ip), vehicle: carboxymethylcellulose (CMC)) 0 of 6.
As to `CCC(C)(C)c1ccc(O)c(C(=O)O)c1`, the survivor count under setting [2] is listed as 1 of 4.
Turning to `OC(C[n+]1ccccc1)c1c[nH]c2ccccc12` (stereo unspecified), the survivor count is 3 of 6 (dose: 150.0 mg/kg/injection, schedule: Q01DX001 (ip), vehicle: other) and 0 of 6 (dose: 300.0 mg/kg/injection, schedule: Q01DX001 (ip), vehicle: other).
In the case of `N#CC(C#N)=Cc1cc(Cl)ccc1O`, the survivor count (dose: 400.0 mg/kg/injection, schedule: Q01DX001 (ip), vehicle: saline) is 1 of 4.
Take `N#CC1C2CCC(C2)C1CCCN` (stereo unspecified): the survivor count reads like this: (dose: 200.0 mg/kg/injection, schedule: Q04DX003 (ip), vehicle: saline) 0 of 6; (dose: 400.0 mg/kg/injection, schedule: Q04DX003 (ip), vehicle: saline) 0 of 6.
Turning to `CN1CC2CCCCC1C2OC(=O)C(c1ccccc1)c1ccccc1` (stereo unspecified), the survivor count (dose: 300.0 mg/kg/injection, schedule: Q01DX001 (ip), vehicle: saline) is recorded as 0 of 6.
`CCCCCNC(=O)CCCC`: the survivor count under setting [2] is recorded as 3 of 6; the survivor count (dose: 400.0 mg/kg/injection, schedule: Q01DX009 (ip), vehicle: carboxymethylcellulose (CMC)) is 0 of 3 and 0 of 6.
`NC(=O)C1(c2ccccc2)CCN(Cc2ccccc2)CC1`: the survivor count (dose: 200.0 mg/kg/injection, schedule: Q04DX003 (ip), vehicle: saline with Tween-80) was 5 of 6.
With `O=S(=O)(O)/C(=C\c1ccccc1)c1ccccc1` (tested in a mixture with another compound), for the setting “dose: 400.0 mg/kg/injection, schedule: Q04DX003 (ip), vehicle: other”, the T/C was 132 % of control [4 of 6 alive]. Also, where the note is “dose: 600.0 mg/kg/injection, schedule: Q01DX001 (ip), vehicle: other”, the survivor count is 1 of 6.
